The supplement of paper PMC12823440, “Inhibitors supercharge kinase turnover through native proteolytic circuits” (Nature, 2025)
The other results are listed elsewhere or left out. Hit calls seldom repeat between salt and free forms of one compound.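 In K562 cells expressing nanoluciferase-fused kinases, luminescence was recorded at 4 h intervals between 2 and 18 h, normalized as percent of control with DMSO at 100% and a positive control at 0%. A significant (2 sigma) signal drop marks a time point as decreased. The authors' rule for a hit is not shown and takes in more than the number of time points.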

Sequences of proteins named here, by UniProt entry; tags and fusion partners are left off. A change or cut given only in a name is not applied to a line headed by its entry.
UniProt P29317, whole entry: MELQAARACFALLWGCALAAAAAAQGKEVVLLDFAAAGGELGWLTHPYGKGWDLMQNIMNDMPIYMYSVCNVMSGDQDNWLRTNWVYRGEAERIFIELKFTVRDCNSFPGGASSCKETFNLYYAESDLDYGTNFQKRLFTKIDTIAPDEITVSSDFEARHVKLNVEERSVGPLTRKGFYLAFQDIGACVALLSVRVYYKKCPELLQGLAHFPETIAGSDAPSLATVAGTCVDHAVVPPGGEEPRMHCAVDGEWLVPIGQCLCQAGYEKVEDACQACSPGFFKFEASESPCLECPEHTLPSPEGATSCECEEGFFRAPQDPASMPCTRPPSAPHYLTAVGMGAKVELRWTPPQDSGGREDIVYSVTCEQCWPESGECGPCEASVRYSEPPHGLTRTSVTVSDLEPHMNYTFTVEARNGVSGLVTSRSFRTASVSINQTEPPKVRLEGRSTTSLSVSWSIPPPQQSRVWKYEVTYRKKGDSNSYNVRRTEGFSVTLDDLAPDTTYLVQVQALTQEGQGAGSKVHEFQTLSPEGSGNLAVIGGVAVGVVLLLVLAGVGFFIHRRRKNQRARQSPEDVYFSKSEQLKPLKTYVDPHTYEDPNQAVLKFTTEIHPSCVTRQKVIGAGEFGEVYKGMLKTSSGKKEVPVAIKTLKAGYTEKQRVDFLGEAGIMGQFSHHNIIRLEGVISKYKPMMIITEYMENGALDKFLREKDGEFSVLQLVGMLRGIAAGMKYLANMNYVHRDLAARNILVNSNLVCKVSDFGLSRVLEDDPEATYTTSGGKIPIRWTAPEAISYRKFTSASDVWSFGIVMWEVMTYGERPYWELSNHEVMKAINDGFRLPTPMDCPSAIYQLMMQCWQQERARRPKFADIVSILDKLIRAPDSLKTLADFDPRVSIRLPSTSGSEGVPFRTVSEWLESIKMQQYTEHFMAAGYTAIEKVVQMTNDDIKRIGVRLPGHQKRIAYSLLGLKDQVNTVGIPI
UniProt P21860, whole entry: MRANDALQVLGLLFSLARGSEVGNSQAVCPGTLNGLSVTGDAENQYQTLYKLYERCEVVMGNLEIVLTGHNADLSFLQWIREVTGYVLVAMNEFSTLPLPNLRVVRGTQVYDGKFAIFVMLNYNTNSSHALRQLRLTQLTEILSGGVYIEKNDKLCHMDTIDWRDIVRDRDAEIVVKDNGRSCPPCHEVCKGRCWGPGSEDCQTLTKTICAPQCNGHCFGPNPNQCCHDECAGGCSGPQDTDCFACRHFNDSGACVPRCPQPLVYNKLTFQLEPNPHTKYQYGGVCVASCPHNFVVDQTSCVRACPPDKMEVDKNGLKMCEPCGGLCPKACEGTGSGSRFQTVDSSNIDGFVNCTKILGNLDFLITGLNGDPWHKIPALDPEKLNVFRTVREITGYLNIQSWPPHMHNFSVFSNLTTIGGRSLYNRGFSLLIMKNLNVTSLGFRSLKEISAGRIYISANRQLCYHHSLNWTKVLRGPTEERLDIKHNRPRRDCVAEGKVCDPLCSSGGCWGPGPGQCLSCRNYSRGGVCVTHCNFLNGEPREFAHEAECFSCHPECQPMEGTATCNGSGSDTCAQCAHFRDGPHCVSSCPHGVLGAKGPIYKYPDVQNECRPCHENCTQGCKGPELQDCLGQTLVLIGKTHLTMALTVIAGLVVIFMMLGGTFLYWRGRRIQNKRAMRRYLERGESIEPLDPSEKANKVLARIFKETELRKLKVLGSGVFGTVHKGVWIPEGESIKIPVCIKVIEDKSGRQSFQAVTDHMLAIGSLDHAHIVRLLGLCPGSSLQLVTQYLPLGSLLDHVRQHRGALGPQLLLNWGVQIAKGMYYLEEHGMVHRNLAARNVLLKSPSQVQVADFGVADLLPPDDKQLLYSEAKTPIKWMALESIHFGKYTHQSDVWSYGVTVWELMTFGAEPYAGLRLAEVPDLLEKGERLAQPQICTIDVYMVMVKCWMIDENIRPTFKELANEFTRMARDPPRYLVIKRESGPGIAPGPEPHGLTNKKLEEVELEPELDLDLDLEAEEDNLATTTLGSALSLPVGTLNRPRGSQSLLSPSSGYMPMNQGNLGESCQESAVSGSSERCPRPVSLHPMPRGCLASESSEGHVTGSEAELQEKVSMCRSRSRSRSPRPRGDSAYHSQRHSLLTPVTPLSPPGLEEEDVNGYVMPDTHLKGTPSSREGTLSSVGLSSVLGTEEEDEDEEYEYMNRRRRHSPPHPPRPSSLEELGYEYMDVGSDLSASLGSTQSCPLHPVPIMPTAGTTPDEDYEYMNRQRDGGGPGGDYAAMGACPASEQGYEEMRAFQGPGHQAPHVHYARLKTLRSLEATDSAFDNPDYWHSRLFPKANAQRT
UniProt O75460: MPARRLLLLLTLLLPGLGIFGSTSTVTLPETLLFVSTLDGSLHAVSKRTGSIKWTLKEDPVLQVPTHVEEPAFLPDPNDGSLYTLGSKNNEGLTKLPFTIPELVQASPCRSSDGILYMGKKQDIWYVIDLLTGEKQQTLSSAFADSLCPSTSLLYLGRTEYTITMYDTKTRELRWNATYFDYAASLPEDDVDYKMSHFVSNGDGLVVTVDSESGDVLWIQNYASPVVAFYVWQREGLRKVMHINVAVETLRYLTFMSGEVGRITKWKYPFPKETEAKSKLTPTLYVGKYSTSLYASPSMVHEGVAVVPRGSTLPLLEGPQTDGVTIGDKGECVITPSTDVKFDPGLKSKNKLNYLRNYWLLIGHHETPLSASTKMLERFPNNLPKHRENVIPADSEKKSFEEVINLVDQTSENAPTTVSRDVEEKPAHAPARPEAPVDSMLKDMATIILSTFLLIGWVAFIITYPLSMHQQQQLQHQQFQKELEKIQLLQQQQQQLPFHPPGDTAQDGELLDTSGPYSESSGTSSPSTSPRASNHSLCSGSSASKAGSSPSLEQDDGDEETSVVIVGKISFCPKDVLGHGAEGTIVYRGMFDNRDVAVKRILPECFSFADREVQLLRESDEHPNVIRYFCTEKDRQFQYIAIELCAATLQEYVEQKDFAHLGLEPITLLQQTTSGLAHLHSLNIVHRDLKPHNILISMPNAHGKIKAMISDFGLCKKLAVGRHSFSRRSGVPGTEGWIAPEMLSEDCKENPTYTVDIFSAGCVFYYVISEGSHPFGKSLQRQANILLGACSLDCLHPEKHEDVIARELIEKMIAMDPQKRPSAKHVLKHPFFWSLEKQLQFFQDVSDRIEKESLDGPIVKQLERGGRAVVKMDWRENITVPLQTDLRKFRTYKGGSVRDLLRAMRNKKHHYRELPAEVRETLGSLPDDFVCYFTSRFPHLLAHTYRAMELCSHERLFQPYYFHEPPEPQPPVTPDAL
UniProt P11362, whole entry, looked up: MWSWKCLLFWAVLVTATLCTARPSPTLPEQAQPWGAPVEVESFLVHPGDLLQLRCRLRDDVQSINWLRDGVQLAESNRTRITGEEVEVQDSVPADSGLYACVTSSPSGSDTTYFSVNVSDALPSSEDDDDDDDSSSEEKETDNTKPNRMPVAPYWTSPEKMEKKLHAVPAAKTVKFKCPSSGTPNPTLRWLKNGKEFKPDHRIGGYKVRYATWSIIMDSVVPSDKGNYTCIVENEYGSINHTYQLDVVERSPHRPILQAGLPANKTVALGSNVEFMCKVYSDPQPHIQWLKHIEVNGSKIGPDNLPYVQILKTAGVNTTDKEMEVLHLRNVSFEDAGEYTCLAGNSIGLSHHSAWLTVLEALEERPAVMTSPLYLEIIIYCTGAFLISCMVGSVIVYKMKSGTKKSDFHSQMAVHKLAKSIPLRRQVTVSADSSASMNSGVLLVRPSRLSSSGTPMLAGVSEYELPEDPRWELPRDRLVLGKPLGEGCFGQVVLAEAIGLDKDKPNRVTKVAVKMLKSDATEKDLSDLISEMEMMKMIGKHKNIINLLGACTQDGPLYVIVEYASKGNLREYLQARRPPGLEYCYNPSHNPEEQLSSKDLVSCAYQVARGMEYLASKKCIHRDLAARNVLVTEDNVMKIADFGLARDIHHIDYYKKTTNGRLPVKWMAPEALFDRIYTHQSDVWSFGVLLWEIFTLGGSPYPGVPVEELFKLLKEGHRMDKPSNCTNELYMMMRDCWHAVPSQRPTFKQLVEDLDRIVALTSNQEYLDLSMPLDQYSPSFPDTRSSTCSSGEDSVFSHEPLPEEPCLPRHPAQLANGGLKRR
UniProt P21802, whole entry, looked up: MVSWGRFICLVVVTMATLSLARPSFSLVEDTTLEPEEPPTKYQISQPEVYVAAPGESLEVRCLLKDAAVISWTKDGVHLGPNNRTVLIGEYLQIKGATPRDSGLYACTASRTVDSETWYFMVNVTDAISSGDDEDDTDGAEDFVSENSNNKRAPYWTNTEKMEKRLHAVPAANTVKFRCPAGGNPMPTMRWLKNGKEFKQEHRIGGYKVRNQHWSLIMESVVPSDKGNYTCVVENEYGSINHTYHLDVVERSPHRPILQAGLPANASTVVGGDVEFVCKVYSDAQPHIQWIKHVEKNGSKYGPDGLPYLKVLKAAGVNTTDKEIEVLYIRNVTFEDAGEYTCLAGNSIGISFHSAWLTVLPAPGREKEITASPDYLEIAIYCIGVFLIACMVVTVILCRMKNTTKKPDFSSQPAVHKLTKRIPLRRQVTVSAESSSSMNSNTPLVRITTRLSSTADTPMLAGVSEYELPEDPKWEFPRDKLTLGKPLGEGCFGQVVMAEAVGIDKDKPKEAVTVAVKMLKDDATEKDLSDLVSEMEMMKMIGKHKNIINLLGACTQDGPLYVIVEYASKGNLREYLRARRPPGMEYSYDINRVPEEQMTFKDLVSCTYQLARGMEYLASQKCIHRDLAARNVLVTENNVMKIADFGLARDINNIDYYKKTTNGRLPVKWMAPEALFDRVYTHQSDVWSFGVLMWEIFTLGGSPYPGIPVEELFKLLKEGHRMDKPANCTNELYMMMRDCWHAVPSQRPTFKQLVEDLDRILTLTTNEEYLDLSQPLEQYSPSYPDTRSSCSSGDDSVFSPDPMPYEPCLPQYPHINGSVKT
UniProt P22607, whole entry, looked up: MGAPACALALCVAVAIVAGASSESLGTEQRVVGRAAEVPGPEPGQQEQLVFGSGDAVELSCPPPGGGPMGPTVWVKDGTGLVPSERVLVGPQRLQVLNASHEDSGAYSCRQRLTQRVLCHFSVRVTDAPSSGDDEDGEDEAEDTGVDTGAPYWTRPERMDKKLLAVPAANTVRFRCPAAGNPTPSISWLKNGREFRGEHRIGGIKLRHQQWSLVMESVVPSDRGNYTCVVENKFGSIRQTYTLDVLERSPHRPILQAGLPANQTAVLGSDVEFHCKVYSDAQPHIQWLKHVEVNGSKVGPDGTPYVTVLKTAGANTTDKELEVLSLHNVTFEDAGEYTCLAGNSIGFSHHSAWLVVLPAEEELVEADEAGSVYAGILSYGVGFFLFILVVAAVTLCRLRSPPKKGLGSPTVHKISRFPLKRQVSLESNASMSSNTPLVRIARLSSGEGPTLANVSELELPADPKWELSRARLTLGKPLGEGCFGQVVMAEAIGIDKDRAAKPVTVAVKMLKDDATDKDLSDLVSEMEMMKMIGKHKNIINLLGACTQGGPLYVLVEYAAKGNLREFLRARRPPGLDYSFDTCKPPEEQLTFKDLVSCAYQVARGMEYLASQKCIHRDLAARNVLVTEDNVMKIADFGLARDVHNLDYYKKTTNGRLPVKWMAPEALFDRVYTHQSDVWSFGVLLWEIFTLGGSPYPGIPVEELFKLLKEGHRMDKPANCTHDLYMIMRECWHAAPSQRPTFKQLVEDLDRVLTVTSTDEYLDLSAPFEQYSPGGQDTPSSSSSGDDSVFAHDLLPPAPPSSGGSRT

Columns and labels:
Experiment in all cases: number of time points (of 5) at which kinase-Nluc abundance scored as decreased, DMSO-normalised (count); higher = more persistent destabilization
Settings in all cases: K562; 2-18 h
[1] = target: EGFR_L861Q (UniProt P00533)
[2] = target: EGFR_T790M (UniProt P00533)
[3] = target: EPHA2 (UniProt P29317)
[4] = target: ERBB3 (UniProt P21860)
[5] = target: ERBB4_R711C (clone: ERBB4_mut) (UniProt Q15303)
[6] = target: ERN1 (UniProt O75460)
[7] = target: FGFR1 (UniProt P11362)
[8] = target: FGFR2 (UniProt P21802)
[9] = target: FGFR3 (UniProt P22607)
[10] = target: FGR (UniProt P09769)

Structure (SMILES): C[C@@H]1CC[C@]2(C(=O)O)CC[C@]3(C)C(=CC[C@@H]4[C@@]5(C)CC[C@H](O)[C@@](C)(CO)[C@@H]5CC[C@]43C)[C@@H]2[C@]1(C)O [Rotundic acid] (10 µM)
- number of time points [1]: 0
- number of time points [2]: 0
- number of time points [3]: 0
- number of time points [4]: 0
- number of time points [5]: 0
- number of time points [6]: 0
- number of time points [7]: 0
- number of time points [8]: 0
- number of time points [9]: 0
- number of time points [10]: 0

Structure (SMILES): N#C/C(=C\c1ccc[nH]1)c1ccc(Cl)c(Cl)c1 (2.5 µM)
- number of time points [1]: 0
- number of time points [2]: 0
- number of time points [3]: 0
- number of time points [4]: 0
- number of time points [5]: 0
- number of time points [6]: 0
- number of time points [7]: 0
- number of time points [8]: 0
- number of time points [9]: 0
- number of time points [10]: 0

Structure (SMILES): COc1cc2nccc(Oc3ccc(NC(=O)Nc4ccc(F)cc4F)c(F)c3)c2cc1OC (10 µM)
- number of time points [1]: 0
- number of time points [2]: 0
- number of time points [3]: 0
- number of time points [4]: 0
- number of time points [5]: 0
- number of time points [6]: 0
- number of time points [7]: 1
- number of time points [8]: 1
- number of time points [9]: 0
- number of time points [10]: 0

Structure (SMILES): CNC(=O)c1c(C)oc2cc(Oc3ncnc4cc(OC)c(OC)cc34)ccc12 [Fruquintinib] (10 µM)
- number of time points [1]: 0
- number of time points [2]: 0
- number of time points [3]: 0
- number of time points [4]: 0
- number of time points [5]: 0
- number of time points [6]: 0
- number of time points [7]: 0
- number of time points [8]: 0
- number of time points [9]: 0
- number of time points [10]: 0

Structure (SMILES): CS(=O)(=O)N1CCN(Cc2cn3cc(-c4cnc(N)nc4)nc(N4CCOCC4)c3n2)CC1 (10 µM)
- number of time points [1]: 0
- number of time points [2]: 0
- number of time points [3]: 0
- number of time points [4]: 0
- number of time points [5]: 0
- number of time points [6]: 0
- number of time points [7]: 0
- number of time points [8]: 0
- number of time points [9]: 0
- number of time points [10]: 0

Structure (SMILES): COc1cc(-c2cnc(N)c(-c3ccc(NC(=O)c4cn(CC5CCOCC5)cc(-c5ccc(C)cn5)c4=O)cc3F)c2)ccc1OC[C@H]1COCCO1 [DS-1205b (free base)] (10 µM)
- number of time points [1]: 0
- number of time points [2]: 0
- number of time points [3]: 0
- number of time points [4]: 0
- number of time points [5]: 0
- number of time points [6]: 0
- number of time points [7]: 0
- number of time points [8]: 0
- number of time points [9]: 0
- number of time points [10]: 0

Structure (SMILES): C[C@@H]1CN(Cc2cn[nH]c2-c2ccc(C#N)cc2)CCN1c1ccc(C(F)(F)F)cn1 (2.5 µM)
- number of time points [1]: 0
- number of time points [2]: 0
- number of time points [3]: 0
- number of time points [4]: 0
- number of time points [5]: 0
- number of time points [6]: 0
- number of time points [7]: 0
- number of time points [8]: 0
- number of time points [9]: 0
- number of time points [10]: 0

Structure (SMILES): COc1ncc2cc(C(=O)Nc3cc(C(=O)NCc4cccc(Cl)c4)ccc3Cl)c(=O)[nH]c2n1 (2.5 µM)
- number of time points [1]: 0
- number of time points [2]: 0
- number of time points [3]: 0
- number of time points [4]: 0
- number of time points [5]: 0
- number of time points [6]: 0
- number of time points [7]: 0
- number of time points [8]: 0
- number of time points [9]: 0
- number of time points [10]: 0

Structure (SMILES): CN(C)CCCn1cc(C2=C(c3c[nH]c4ccccc34)C(=O)NC2=O)c2ccccc21 [Bisindolylmaleimide I] (2.5 µM)
- number of time points [1]: 0
- number of time points [2]: 0
- number of time points [3]: 0
- number of time points [4]: 0
- number of time points [5]: 0
- number of time points [6]: 0
- number of time points [7]: 0
- number of time points [8]: 0
- number of time points [9]: 0
- number of time points [10]: 0

Structure (SMILES): O=S(=O)(N=Cc1c(O)ccc2ccccc12)c1cccs1 (10 µM)
- number of time points [1]: 0
- number of time points [2]: 0
- number of time points [3]: 0
- number of time points [4]: 0
- number of time points [5]: 0
- number of time points [6]: 0
- number of time points [7]: 0
- number of time points [8]: 0
- number of time points [9]: 0
- number of time points [10]: 0

Structure (SMILES): Cc1cc(/C=C2\CC/C(=C\c3cc(C)c(O)c(C)c3)C2=O)cc(C)c1O [Pentagamavunon-1] (2.5 µM)
- number of time points [1]: 1
- number of time points [2]: 0
- number of time points [3]: 0
- number of time points [4]: 0
- number of time points [5]: 0
- number of time points [6]: 0
- number of time points [7]: 0
- number of time points [8]: 0
- number of time points [9]: 0
- number of time points [10]: 0

Structure (SMILES): COc1cccc2cc(-c3nc([C@H]4CC[C@H](C(=O)O)CC4)n4ncnc(N)c34)[nH]c12 (2.5 µM)
- number of time points [1]: 2
- number of time points [2]: 0
- number of time points [3]: 0
- number of time points [4]: 3
- number of time points [5]: 4
- number of time points [6]: 1
- number of time points [7]: 4
- number of time points [8]: 3
- number of time points [9]: 0
- number of time points [10]: 0

Structure (SMILES): Cn1cc(-c2ccc3ncc(Cc4ccc5ncccc5c4)n3n2)cn1 (10 µM)
- number of time points [1]: 0
- number of time points [2]: 0
- number of time points [3]: 0
- number of time points [4]: 0
- number of time points [5]: 0
- number of time points [6]: 0
- number of time points [7]: 0
- number of time points [8]: 0
- number of time points [9]: 0
- number of time points [10]: 0

Structure (SMILES): Cc1ccc(Nc2c(C(N)=O)cnc3cc(-c4ccncc4)ccc23)cc1C [cFMS Receptor Inhibitor II] (10 µM)
- number of time points [1]: 0
- number of time points [2]: 0
- number of time points [3]: 0
- number of time points [4]: 0
- number of time points [5]: 0
- number of time points [6]: 0
- number of time points [7]: 0
- number of time points [8]: 0
- number of time points [9]: 0
- number of time points [10]: 0

Structure (SMILES): COc1ccc(S(=O)(=O)N(CCO)c2ccccc2CN(C)CC=Cc2ccc(Cl)cc2)cc1 (2.5 µM)
- number of time points [1]: 0
- number of time points [2]: 0
- number of time points [3]: 0
- number of time points [4]: 0
- number of time points [5]: 0
- number of time points [6]: 0
- number of time points [7]: 0
- number of time points [8]: 0
- number of time points [9]: 0
- number of time points [10]: 0

Structure (SMILES): CC(C)(C)c1ccc(C(=O)Nc2cn3cc(-n4ccnc4)ccc3n2)cc1 (10 µM)
- number of time points [1]: 0
- number of time points [2]: 0
- number of time points [3]: 0
- number of time points [4]: 0
- number of time points [5]: 0
- number of time points [6]: 0
- number of time points [7]: 0
- number of time points [8]: 0
- number of time points [9]: 0
- number of time points [10]: 0

Structure (SMILES): CNC(=O)c1ccc(-c2cnc3ncc(Cc4ccc5ncccc5c4)n3n2)cc1F [Capmatinib] (10 µM)
- number of time points [1]: 0
- number of time points [2]: 0
- number of time points [3]: 0
- number of time points [4]: 0
- number of time points [5]: 0
- number of time points [6]: 0
- number of time points [7]: 0
- number of time points [8]: 0
- number of time points [9]: 0
- number of time points [10]: 0
